US20220233542A1, “COMPOSITIONS AND METHODS FOR PREVENTING OR TREATING HUMAN IMMUNODEFICIENCY VIRUS ASSOCIATED PULMONARY ARTERIAL HYPERTENSION” (University of Georgia Research Foundation, priority 2019, published 2022)

What was measured:
[1] = SIV/Statin Group 2 compared with SIV-PAH+ controls

CC(C)c1c(C(=O)Nc2ccccc2)c(-c2ccccc2)c(-c2ccc(F)cc2)n1CC[C@@H](O)C[C@@H](O)CC(=O)O [atorvastatin]
terminal levels of plasma MIP-1α (MIP-1α; [1]): significantly lower | terminal plasma levels of MIP-1α (MIP-1α; SIV/Statin Group 3): not significantly reduced | terminal levels of plasma TNF-α (TNF-α; [1]): significantly lower | terminal plasma levels of TNF-α (TNF-α; SIV/Statin Group 3): not significantly reduced
